Experimental data taken from PMC8956953.
No constants are given. Whether binding was seen depends on the method and setting. Some results given as binding are weak or reduced against the parent protein; the word gives no strength.

By UniProt entry, the sequences of proteins in these tests, tags left out.
UniProt Q9HBH9: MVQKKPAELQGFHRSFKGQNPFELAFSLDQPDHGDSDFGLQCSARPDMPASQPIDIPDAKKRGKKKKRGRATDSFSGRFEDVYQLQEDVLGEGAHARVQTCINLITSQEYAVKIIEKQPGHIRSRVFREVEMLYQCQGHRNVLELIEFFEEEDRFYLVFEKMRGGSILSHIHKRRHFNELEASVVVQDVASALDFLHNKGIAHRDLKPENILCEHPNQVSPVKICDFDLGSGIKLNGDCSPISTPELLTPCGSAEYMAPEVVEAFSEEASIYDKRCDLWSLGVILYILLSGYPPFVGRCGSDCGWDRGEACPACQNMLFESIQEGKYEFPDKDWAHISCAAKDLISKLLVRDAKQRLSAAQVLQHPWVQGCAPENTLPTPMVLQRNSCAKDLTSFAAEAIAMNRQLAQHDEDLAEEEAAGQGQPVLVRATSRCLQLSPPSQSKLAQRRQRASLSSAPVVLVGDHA
UniProt Q14247: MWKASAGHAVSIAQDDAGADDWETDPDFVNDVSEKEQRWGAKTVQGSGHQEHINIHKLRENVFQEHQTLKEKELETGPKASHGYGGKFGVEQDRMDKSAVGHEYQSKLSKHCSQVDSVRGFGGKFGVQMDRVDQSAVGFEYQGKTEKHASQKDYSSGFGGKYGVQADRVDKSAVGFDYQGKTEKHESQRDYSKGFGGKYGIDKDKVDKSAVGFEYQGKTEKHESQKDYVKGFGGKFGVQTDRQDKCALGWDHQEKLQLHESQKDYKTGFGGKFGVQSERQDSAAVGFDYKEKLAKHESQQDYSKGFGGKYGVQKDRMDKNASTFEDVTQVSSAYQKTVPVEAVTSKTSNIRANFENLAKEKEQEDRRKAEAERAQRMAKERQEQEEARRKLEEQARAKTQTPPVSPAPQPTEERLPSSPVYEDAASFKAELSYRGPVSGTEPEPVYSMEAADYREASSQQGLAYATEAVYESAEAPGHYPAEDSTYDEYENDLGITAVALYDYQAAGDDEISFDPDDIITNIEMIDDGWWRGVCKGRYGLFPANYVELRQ
UniProt O43865: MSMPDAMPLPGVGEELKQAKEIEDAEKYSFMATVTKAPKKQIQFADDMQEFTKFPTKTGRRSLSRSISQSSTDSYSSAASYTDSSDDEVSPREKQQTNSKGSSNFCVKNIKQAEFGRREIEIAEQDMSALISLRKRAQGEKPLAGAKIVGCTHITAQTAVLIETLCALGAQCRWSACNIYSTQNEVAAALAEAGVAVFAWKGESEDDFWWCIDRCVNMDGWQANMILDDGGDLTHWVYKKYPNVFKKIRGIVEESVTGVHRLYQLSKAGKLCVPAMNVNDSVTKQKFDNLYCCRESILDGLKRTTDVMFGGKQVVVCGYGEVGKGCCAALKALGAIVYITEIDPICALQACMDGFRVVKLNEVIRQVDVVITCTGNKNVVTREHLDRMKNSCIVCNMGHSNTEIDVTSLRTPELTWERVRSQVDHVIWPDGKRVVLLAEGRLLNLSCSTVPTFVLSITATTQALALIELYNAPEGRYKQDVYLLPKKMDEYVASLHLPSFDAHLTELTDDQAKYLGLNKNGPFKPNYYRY
UniProt P53667: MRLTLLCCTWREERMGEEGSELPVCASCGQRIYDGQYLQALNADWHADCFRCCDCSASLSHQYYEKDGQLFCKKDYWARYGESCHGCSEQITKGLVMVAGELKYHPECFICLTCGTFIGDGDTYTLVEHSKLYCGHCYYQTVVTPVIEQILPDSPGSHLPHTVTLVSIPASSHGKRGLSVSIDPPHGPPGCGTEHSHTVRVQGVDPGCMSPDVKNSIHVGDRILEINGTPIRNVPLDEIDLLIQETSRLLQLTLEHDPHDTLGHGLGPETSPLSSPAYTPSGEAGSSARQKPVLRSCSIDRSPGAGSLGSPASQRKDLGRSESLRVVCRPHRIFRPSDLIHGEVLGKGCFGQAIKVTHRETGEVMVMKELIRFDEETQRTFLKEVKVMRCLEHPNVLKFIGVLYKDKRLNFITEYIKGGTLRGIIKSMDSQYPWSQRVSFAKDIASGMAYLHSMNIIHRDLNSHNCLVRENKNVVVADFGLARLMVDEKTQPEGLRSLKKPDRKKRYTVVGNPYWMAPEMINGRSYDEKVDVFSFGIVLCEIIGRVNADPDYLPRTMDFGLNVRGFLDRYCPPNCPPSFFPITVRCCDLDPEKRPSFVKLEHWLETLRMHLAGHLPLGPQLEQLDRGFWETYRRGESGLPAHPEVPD

Key:
Experiment in all cases: peptide or protein array; ProtoArray Human Protein Microarrays v5.1, ~9000 N-terminal GST-tagged human proteins spotted on nitrocellulose-coated slides; htau40 at 5 and 50 ng/μl in probe buffer (1x PBS, 0.1% Tween-20, 1x synthetic block), 90 min at 4 °C; detected with anti-tau K9JA and Alexa Fluor 647 secondary antibody; both purified
[1] = target: T1, MAPK8IP2, spotted on the ProtoArray (human) (UniProt Q13387)
T1 sequence: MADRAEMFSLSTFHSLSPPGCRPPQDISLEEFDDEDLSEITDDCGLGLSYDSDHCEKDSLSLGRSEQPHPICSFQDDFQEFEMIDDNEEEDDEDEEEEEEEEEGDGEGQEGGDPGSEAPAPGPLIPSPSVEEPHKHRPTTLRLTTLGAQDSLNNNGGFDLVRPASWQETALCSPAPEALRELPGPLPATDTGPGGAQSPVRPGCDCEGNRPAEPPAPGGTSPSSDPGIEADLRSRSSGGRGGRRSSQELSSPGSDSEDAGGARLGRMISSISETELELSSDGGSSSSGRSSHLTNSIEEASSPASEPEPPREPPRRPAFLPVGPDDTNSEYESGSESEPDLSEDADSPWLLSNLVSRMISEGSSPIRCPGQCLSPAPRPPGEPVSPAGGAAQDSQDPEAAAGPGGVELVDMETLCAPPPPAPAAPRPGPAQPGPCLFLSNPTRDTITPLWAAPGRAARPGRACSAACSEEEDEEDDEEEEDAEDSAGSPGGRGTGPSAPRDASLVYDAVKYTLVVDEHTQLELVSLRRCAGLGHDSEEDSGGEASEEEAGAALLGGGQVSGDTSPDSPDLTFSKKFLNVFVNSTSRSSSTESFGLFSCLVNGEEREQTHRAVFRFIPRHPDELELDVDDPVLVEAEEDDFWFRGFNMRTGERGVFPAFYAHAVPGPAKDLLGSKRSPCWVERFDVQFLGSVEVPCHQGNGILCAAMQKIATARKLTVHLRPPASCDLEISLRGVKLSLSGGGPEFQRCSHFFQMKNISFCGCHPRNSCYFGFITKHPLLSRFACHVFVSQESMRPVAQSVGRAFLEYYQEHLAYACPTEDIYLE

[2] = target: T2, SAMSN1, spotted on the ProtoArray (human) (UniProt Q9NSI8)
T2 sequence: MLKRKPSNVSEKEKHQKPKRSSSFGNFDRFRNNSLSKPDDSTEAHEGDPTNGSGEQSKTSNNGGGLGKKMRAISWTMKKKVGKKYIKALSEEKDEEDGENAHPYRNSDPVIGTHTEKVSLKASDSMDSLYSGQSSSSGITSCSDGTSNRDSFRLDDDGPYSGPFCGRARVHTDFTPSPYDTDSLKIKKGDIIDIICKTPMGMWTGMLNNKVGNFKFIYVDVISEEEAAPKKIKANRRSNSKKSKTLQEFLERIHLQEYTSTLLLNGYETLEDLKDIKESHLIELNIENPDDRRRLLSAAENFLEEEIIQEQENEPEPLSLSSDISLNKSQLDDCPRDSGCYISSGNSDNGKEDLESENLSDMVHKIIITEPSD

[3] = target: MKNK2, spotted on the ProtoArray (human) (UniProt Q9HBH9)
[4] = target: T3, SH3D19, spotted on the ProtoArray (human) (UniProt Q5HYK7)
T3 sequence: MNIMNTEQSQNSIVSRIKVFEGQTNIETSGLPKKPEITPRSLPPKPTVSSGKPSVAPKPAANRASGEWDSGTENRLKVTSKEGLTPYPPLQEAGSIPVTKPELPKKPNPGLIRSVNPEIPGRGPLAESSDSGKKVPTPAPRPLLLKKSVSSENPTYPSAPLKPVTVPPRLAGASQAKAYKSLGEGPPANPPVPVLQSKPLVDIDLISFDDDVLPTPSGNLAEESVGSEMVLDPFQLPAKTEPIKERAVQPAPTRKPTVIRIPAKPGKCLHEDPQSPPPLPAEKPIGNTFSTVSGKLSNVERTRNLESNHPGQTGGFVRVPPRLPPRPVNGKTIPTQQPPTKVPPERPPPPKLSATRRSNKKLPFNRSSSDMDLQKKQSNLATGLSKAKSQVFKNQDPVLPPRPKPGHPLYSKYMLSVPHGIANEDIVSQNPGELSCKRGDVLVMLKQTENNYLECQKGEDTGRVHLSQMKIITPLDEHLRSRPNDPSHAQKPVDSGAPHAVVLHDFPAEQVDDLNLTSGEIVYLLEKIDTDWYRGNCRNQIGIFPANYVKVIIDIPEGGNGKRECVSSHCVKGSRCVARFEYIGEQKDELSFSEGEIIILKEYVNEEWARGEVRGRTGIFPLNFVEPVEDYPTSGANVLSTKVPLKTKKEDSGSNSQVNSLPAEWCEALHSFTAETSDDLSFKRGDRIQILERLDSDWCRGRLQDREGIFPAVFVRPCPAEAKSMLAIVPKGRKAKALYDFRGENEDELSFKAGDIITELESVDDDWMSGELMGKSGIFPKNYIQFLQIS

[5] = target: Src substrate cortactin, spotted on the ProtoArray (human) (UniProt Q14247)
[6] = target: SAH hydrolase-like protein 1/IP3R-binding protein (AHCYL1/IRBIT), spotted on the ProtoArray (human) (UniProt O43865)
[7] = target: LIMK1, spotted on the ProtoArray (human) (UniProt P53667)

Measured: binding

recombinant human full-length tau protein (htau40) (from UniProt P10636-8 1-441)
binds: all assays above
